{"sequences": {"note": "By UniProt entry, the sequences of proteins in these tests, tags left out.", "UniProt Q92769": "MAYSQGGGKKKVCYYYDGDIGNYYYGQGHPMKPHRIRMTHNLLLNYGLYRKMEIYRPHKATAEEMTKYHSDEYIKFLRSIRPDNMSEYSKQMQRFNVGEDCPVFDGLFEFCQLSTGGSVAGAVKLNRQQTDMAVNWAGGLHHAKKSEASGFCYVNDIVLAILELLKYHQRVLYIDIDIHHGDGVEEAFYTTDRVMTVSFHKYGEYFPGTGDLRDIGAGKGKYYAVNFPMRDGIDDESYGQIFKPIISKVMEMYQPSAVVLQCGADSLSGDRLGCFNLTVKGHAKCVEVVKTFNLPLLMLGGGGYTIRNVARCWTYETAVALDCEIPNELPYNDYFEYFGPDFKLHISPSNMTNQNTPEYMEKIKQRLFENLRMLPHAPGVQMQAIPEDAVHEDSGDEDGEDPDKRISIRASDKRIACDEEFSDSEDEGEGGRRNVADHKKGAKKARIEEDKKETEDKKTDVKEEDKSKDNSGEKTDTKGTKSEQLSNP"}, "source": "paper PMC5296651", "molecules": {"B1": {"name": "serum response factor (SRF) (protein, UniProt P11831 1-508)", "chain": "MLPTQAGAAAALGRGSALGGSLNRTPTGRPGGGGGTRGANGGRVPGNGAGLGPGRLEREAAAAAATTPAPTAGALYSGSEGDSESGEEEELGAERRGLKRSLSEMEIGMVVGGPEASAAATGGYGPVSGAVSGAKPGKKTRGRVKIKMEFIDNKLRRYTTFSKRKTGIMKKAYELSTLTGTQVLLLVASETGHVYTFATRKLQPMITSETGKALIQTCLNSPDSPPRSDPTTDQRMSATGFEETDLTYQVSESDSSGETKDTLKPAFTVTNLPGTTSTIQTAPSTSTTMQVSSGPSFPITNYLAPVSASVSPSAVSSANGTVLKSTGSGPVSSGGLMQLPTSFTLMPGGAVAQQVPVQAIQVHQAPQQASPSRDSSTDLTQTSSSGTVTLPATIMTSSVPTTVGGHMMYPSPHAVMYAPTSGLGDGSLTVLNAFSQAPSTMQVSHSQVQEPGGVPQVFLTASSGTVQIPVSAVQLHQMAVIGQQAGSSSNLTELQVVNLDTAHSTKSE"}}, "key": {"[1]": {"biological_target": "T1, HOP homeobox (HOPX), stably overexpressed in CNE2 and SUNE1 cells (human) (UniProt Q9BPY8)", "T1 sequence": "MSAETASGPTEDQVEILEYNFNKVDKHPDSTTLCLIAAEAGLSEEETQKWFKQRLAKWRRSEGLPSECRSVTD", "assay": "affinity purification with mass spectrometry; immunoprecipitation with anti-HOPX antibody (anti-IgG as negative control) from lysate of SUNE1 cells with stable HOPX overexpression, overnight at 4 °C, Protein A/G Sepharose beads; mass spectrometry"}, "[2]": {"biological_target": "T1, HOP homeobox (HOPX), stably overexpressed in CNE2 and SUNE1 cells (human)", "assay": "affinity purification with mass spectrometry; immunoprecipitation with anti-HOPX antibody (anti-IgG as negative control) from lysate of SUNE1 cells with stable HOPX overexpression, overnight at 4 °C, Protein A/G Sepharose beads; mass spectrometry", "remark": "listed apart in the source"}}, "note": "Like-named read-outs stand apart in the source and are kept apart here. Results are given in words; binding and its absence hold for the method and conditions named. In cells and extracts the contact can be indirect. Here binding means that the protein was enriched with, or labelled near, the bait; the list need not be complete.", "data": [{"molecule": "histone deacetylases 2 (HDAC2) (from UniProt Q92769 1-488)", "values": [{"measurement": "binding", "setting": "[1]", "result": "binds"}]}, {"molecule": "B1", "values": [{"measurement": "binding", "setting": "[2]", "result": "binds"}]}]}
